Assay results published in PubChem BioAssay AID2685 (National Center for Advancing Translational Sciences (NCATS), 2010).
The other results are listed elsewhere or left out. Further columns of the screen follow, without active or inactive calls. Most of these compounds were active or inconclusive in the main read-out, so they are no random draw. Potencies come from curve fits of mixed quality, noted in brackets.

Assay: qHTS Assay for Lipid Storage Modulators in Drosophila S3 Cells;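 as to cell number change: cells counted by Cell Tracker Red CMTPX staining in the red channel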
Conditions: BODIPY lipid droplet fluorescence, 18-24 h; for cell number change: measured here: cell count max response, cells fed with added oleic acid
Method in brief: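 Drosophila S3 cells got compounds at several concentrations plus oleic acid (400 uM solution). Laser-scanning cytometry with 488 nm excitation read lipid droplets at 500-530 nm and cells at 575-640 nm. Percent activity was relative to 20 uM Triacsin C.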

[1] = measured here: cell number channel AC50, cells fed with added oleic acid
[2] = measured here: lipid fluorescence (Fed channel) AC50, cells fed with added oleic acid

## O=C(COC(=O)c1ccc2ccccc2c1)Nc1ncc(C(F)(F)F)cc1Cl
  cell number change: -39.3%
[1]
  AC50: 0.411 µM [falling, full curve]
[2]
  AC50: 0.731 µM [falling, full curve]

## COC(=O)CCCCCCCC(=O)Nc1nnc(C(F)(F)F)s1
  cell number change: -27.5%
[2]
  AC50: 29.1 µM [falling, single point]

## O=S(=O)(c1ccc(Cl)cc1)N1CCC(N2CCOCC2)CC1
  cell number change: -27.9%

## O=C(NNC(=O)c1cccnc1SCc1cccc([N+](=O)[O-])c1)c1ccc(F)cc1
  cell number change: 22.1%
[2]
  AC50: 14.6 µM [rising, partial curve, poor fit]

## CCOC(=O)NC(=O)CSc1nnc(C2CC2)n1Cc1ccco1
  cell number change: 44.4%
[1]
  AC50: 18.4 µM [rising, single point]
[2]
  AC50: 18.4 µM [rising, single point]

## COc1ccc(C)cc1NC(=O)CSc1nc(SC)ns1
  cell number change: -2.7%
[2]
  AC50: 1.64 µM [rising, partial curve]

## Cn1cc(S(=O)(=O)Oc2ccccc2)c(=O)n(C)c1=O
  cell number change: -29%

## COc1ccc2nc(SC(C(=O)c3ccccc3)c3ccccc3)nc(C)c2c1 (centres undefined)
  cell number change: 10.4%
[2]
  AC50: 3.66 µM [falling, single point]

## Cc1ccc(C(=O)OCC(=O)NCCc2ccccc2)cc1S(=O)(=O)N1CCOCC1
[1]
  AC50: 6.51 µM [falling, single point]
[2]
  AC50: 25.9 µM [rising, partial curve, poor fit]

## CCc1c(C(=O)NNC(=S)NC2CCCCC2)csc1C
  cell number change: -29.5%
[2]
  AC50: 20.6 µM [falling, single point]

## COCCCN(C(=O)CCOc1ccccc1C)c1c(N)n(Cc2ccccc2)c(=O)[nH]c1=O
  cell number change: -13.7%

## CCCCC(CC)COC(=O)CCCCC(=O)OCC(CC)CCCC (centres undefined)
  cell number change: -23.5%
[2]
  AC50: 1.16 µM [rising, single point]

## NC(=O)NC(=O)CSc1nc(C2CCCCC2)n(-c2ccccc2)n1
[2]
  AC50: 0.082 µM [rising, partial curve, poor fit]

## CCCCCCC(=O)Nc1nc(C)c(-c2csc(Nc3cccc(OC)c3)n2)s1
  cell number change: -27.6%
[2]
  AC50: 9.2 µM [falling, partial curve, poor fit]

## N/C(CSc1ccc(Cl)cc1)=N\S(=O)(=O)c1ccc(Cl)cc1
  cell number change: -48.2%
[1]
  AC50: 29.1 µM [falling, single point]
[2]
  AC50: 29.1 µM [falling, single point]

## CCOc1ccccc1COC(=O)c1cccc(-n2cnnn2)c1
  cell number change: -27.6%
[2]
  AC50: 8.2 µM [falling, partial curve, poor fit]

## CC(C)(C)NCC(=O)c1c[nH]c2ccccc12
[2]
  AC50: 20.6 µM [rising, partial curve]

## Cc1ccc(NC(=O)CC(C)S(=O)(=O)c2ccc3c(c2)NC(=O)CO3)c(Cl)c1 (centres undefined)
  cell number change: -33.7%
[1]
  AC50: 29.1 µM [falling, single point]
[2]
  AC50: 8.2 µM [falling, single point]

## Cc1[nH]n(-c2ccccc2)c(=O)c1C(=O)c1ccccc1
  cell number change: -2.58%

## Cc1ccc(-c2csc(Nc3ccc(C(=O)O)cc3)[n+]2Cc2ccccc2)cc1
  cell number change: 37.1%
[1]
  AC50: 1.46 µM [falling, partial curve]
[2]
  AC50: 1.84 µM [falling, partial curve]

## NC(=O)c1ccc(NC(=O)CN2CCOCC2)cc1
  cell number change: -1.37%
[2]
  AC50: 6.51 µM [falling, single point]

## C#CCOC(=O)c1ccccc1C(=O)OCC#C
  cell number change: 47%
[1]
  AC50: 7.31 µM [rising, single point]
[2]
  AC50: 23.1 µM [rising, partial curve]

## CCOC(=O)c1c(CN(CC)CC)oc2cc(Br)c(O)cc12
  cell number change: -0.348%
[2]
  AC50: 6.51 µM [rising, single point]

## CCC1CCCCN1C(=O)COc1c(Br)cc(Br)c2cccnc12 (centres undefined)
  cell number change: -35%

## COc1ccc(S(=O)(=O)N2CCOCC2)cc1NC(=O)CN1C(=O)NC2(CCCCC2C)C1=O (centres undefined)
  cell number change: 1.98%
[1]
  AC50: 0.082 µM [falling, full curve, poor fit]

## CCCCC(c1nnnn1CC1CCCO1)N1CCN(c2cccc(C)c2C)CC1 (centres undefined)
  cell number change: -6.88%
[2]
  AC50: 29.1 µM [rising, single point]

## Cc1ccccc1Cn1c(=O)n(Cc2ccco2)c(=O)c2ccccc21
  cell number change: -4.53%
[2]
  AC50: 8.2 µM [rising, partial curve]

## CC1Cc2ccccc2N1C(=O)C1CCN(S(=O)(=O)c2cccs2)CC1 (centres undefined)
  cell number change: -31%

## COc1ccc(NC(=O)c2ccc(C(=O)c3ccccc3)o2)cc1
[1]
  AC50: 1.16 µM [rising, single point]

## CCOC(=O)c1cc2c3ccccc3n(CC)c2nc1N
  cell number change: -13.8%

## Cc1nc2ccc(S(=O)(=O)N(C)CC(=O)NCc3ccc(N(C)C)cc3)cc2s1
  cell number change: 87.1%
[1]
  AC50: 18.4 µM [rising, single point]

## COC(=O)c1ccc(Oc2nc(Nc3ccc(F)cc3)nc(N3CCCC3)n2)cc1
  cell number change: -27.9%
[2]
  AC50: 29.1 µM [falling, single point]

## O=C(Nc1nc2ccccc2[nH]1)c1ccc(Cl)c(S(=O)(=O)N2CCCC2)c1
[1]
  AC50: 5.17 µM [rising, single point]
[2]
  AC50: 29.1 µM [rising, single point]

## CCc1n[nH]c(=S)n1/N=C/c1cc(Br)c(O)c(OC)c1
  cell number change: 31.5%
[2]
  AC50: 0.13 µM [rising, full curve, poor fit]

## CC(C)C1Nc2ccc(C(=O)NCc3ccco3)cc2NC1=O (centres undefined)
  cell number change: -5.56%
[2]
  AC50: 29.1 µM [rising, single point]

## CCc1ccc(C(=O)N/N=C(\C)c2cccnc2)s1
  cell number change: 5.41%
[2]
  AC50: 29.1 µM [falling, single point]

## CCOC(=O)C1CCN(S(=O)(=O)c2ccc(C)cc2)CC1
  cell number change: 58.8%
[1]
  AC50: 16.4 µM [rising, partial curve]

## Cc1ccc(S(=O)(=O)N2CCCN(C(=O)c3ccc(-n4cccn4)cc3)CC2)cc1
  cell number change: 20.4%
[2]
  AC50: 32.6 µM [rising, single point]

## COc1cc(C(=O)ONC(=O)c2ccc(OC(F)F)cc2)cc(OC)c1OC
  cell number change: 23.1%

## CCOc1ccc(N(C)S(=O)(=O)c2ccc(C)c(C(=O)NCc3ccccc3OC)c2)cc1
  cell number change: -25.1%
[2]
  AC50: 5.8 µM [falling, partial curve]

## CC(C)(C)c1cc(C(=O)NC2CC2)n(Cc2ccc(F)cc2)n1
[2]
  AC50: 2.59 µM [rising, partial curve]

## N#C/C(=C\c1cccc(Oc2ccc(C(F)(F)F)cc2[N+](=O)[O-])c1)c1nc2ccccc2[nH]1
  cell number change: 37.1%
[1]
  AC50: 2.06 µM [rising, partial curve]

## C=CCNC(=O)c1c(N)n(-c2cccc(S(N)(=O)=O)c2)c2nc3ccccc3nc12
  cell number change: 12.4%
[1]
  AC50: 0.00411 µM [rising, full curve, poor fit]

## O=C(COc1cc(O)c2c(=O)cc(-c3ccccc3)oc2c1)c1cccc([N+](=O)[O-])c1
  cell number change: 9.68%
[2]
  AC50: 6.51 µM [falling, single point]

## Cc1ccccc1NC(=S)N/N=C/c1ccc(O)cc1O
  cell number change: 14.3%
[1]
  AC50: 3.26 µM [rising, single point]
[2]
  AC50: 5.8 µM [rising, full curve]

## Cc1ccc2nc(NC(=O)CSCc3ccccc3)sc2c1
  cell number change: 7.65%
[2]
  AC50: 2.06 µM [rising, partial curve]

## CCc1ccc(N(C(=O)c2csnn2)C(C(=O)NC2CCCCC2)c2cccnc2)cc1 (centres undefined)
  cell number change: 2.92%

## CCOCCn1c(SCc2ccc(F)cc2)nc2c1c(=O)[nH]c(=O)n2C
[1]
  AC50: 2.59 µM [rising, single point]

## Cc1noc(C)c1C(=O)Nc1cccc2ncccc12
  cell number change: 17.9%

## CCOC(=O)C(NC(=O)c1cccc(Cl)c1)(OCc1ccc(F)cc1)C(F)(F)F (centres undefined)
  cell number change: -23.2%
[2]
  AC50: 3.66 µM [rising, partial curve]

## Nn1c(SCC(=O)Nc2ccc(F)cc2F)nnc1C1CCCCC1
  cell number change: 43.2%
[1]
  AC50: 14.6 µM [rising, partial curve, poor fit]

## Cc1ccc(-n2c(SCC(=O)N3CCOCC3)nc(O)cc2=O)cc1
  cell number change: 15.6%
[2]
  AC50: 6.51 µM [rising, single point]

## O=C1CCN(Cc2ccc([N+](=O)[O-])cc2)CCN1CCO
  cell number change: 7.77%

## COc1cccc(NC(=O)c2nnn(CC(=O)Nc3cc(C)cc(C)c3)c2N)c1
  cell number change: 43.2%
[1]
  AC50: 8.2 µM [rising, single point]

## O=C(/C=C/c1ccc(OCCCF)cc1)NCc1cccc(Cl)c1
  cell number change: 23.5%
[2]
  AC50: 0.00411 µM [rising, full curve, poor fit]

## O=C1CCCC/C1=C/NCc1ccccc1
  cell number change: 15.7%

## COc1ccc2c(CC(=O)NNC(=O)c3cccs3)coc2c1
  cell number change: 1.16%
[2]
  AC50: 18.4 µM [falling, single point]

## Cc1ccc2nc(COc3ccc(N(C)S(=O)(=O)c4ccccc4)cc3)cc(=O)n2c1
  cell number change: -60.2%
[1]
  AC50: 20.6 µM [falling, single point]

## O=C(CN1CCC(N2CCCCC2)CC1)N1CCOCC1
  cell number change: -20.9%
[2]
  AC50: 0.366 µM [falling, full curve, poor fit]

## CCO/C(=C/c1sc2ccc(OC)cc2[n+]1CCCS(=O)(=O)[O-])CC
[2]
  AC50: 29.1 µM [falling, single point]

## COc1ccc(C(=O)/C=C/Nc2c(C)n(C)n(-c3ccccc3)c2=O)cc1OC
  cell number change: -5.49%
[2]
  AC50: 0.651 µM [falling, single point]

## CC(C)(C)N1C(=O)[C@H]2[C@@H](c3ccc(Br)cc3)N3C(=O)N(c4cccc(Br)c4)C(=O)[C@@]3(Cc3ccccc3)[C@H]2C1=O
  cell number change: 50.3%
[1]
  AC50: 29.1 µM [rising, single point]
[2]
  AC50: 29.1 µM [rising, single point]
